Laboratory results reported in PMC8424379 (2021).
Positions count from the first letter of the chain named. In names and notes the source's numbering stands. These are yes or no findings as the source states them, for the method shown. For some assays here: In cells and extracts the contact can be indirect. Some binding calls cover weakened binding; strength is not graded here. Tags and fused reporters may be left off the sequences shown. Blank lines part the entries; values can stand above or below the binder they belong to.

How the values were obtained:
[1] = molecular target: T1, Raf2 fused to Gal4 DNA-binding domain (S. pombe) (UniProt O74560); assay: two-hybrid; L40 strain with pBTM116 and pACT2 fusion plasmids; Raf2, Tpz1 or Clr3 on the Gal4 DNA-binding domain, WT and mutant Ccq1 on the Gal4 activation domain; liquid β-galactosidase assay
T1 sequence: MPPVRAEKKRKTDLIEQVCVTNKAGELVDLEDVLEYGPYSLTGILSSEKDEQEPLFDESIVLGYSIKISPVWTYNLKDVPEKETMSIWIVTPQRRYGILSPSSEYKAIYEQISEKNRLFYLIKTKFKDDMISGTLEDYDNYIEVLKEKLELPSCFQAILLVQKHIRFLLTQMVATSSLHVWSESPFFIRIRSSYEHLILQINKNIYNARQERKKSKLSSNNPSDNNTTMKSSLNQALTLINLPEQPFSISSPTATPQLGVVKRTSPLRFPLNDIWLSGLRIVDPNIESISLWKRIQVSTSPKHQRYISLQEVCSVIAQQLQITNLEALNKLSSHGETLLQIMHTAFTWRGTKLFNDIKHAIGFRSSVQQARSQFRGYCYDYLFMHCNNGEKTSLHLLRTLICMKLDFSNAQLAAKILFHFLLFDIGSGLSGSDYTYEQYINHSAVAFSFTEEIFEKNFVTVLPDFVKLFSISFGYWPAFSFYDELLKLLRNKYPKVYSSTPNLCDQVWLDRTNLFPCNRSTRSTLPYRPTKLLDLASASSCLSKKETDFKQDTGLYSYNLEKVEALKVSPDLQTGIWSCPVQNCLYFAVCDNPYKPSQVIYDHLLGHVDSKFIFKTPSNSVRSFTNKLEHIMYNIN

[2] = molecular target: T2, Clr3 fused to the Gal4 DNA binding domain (S. pombe) (UniProt P56523); assay: as above
T2 sequence: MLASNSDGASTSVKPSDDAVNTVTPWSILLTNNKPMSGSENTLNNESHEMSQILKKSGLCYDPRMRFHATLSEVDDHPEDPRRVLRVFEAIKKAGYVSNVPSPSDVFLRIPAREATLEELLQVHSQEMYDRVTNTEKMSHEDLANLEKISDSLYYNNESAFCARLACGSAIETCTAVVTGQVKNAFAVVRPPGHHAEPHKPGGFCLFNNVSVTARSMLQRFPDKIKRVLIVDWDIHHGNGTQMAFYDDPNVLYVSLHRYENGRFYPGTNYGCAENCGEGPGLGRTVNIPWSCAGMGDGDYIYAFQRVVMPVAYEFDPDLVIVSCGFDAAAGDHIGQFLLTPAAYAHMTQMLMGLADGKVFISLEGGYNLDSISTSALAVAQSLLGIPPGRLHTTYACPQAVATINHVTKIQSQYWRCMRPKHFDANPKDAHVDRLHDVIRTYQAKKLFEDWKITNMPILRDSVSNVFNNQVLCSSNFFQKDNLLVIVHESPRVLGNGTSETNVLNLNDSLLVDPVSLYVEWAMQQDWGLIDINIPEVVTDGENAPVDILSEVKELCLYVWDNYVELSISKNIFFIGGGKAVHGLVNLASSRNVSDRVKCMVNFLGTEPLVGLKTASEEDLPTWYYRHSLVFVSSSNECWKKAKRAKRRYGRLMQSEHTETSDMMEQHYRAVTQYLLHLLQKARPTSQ

[3] = molecular target: T3, Flag-tagged wild-type Ccq1 (S. pombe) (UniProt Q10432); assay: co-IP; S. pombe whole-cell extracts (50 mM Hepes pH 7.5, 150 mM NaCl, 1 mM EDTA, 1% Triton-X100); Flag-tagged Ccq1 precipitated with anti-FLAG M2 Affinity Gel, 4°C, 4 h; Myc-tagged Raf2 detected by immunoblot
T3 sequence: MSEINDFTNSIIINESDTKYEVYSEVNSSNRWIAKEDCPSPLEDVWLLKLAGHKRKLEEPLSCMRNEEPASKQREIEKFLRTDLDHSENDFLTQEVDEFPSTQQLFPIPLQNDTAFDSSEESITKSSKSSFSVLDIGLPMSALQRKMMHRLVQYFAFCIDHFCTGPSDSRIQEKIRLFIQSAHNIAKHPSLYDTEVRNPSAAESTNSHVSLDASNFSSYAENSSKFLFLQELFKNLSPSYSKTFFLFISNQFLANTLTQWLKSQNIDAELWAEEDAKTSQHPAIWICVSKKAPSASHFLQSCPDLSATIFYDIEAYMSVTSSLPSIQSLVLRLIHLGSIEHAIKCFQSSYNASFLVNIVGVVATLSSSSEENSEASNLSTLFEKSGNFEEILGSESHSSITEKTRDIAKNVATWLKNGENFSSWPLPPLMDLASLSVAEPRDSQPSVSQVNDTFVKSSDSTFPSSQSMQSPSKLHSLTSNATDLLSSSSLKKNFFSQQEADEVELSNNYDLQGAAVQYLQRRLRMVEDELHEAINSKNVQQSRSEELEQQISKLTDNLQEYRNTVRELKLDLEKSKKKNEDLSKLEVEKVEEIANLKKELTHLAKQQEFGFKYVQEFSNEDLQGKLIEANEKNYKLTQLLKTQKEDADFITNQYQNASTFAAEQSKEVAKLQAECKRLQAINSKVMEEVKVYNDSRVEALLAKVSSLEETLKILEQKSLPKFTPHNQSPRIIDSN

B1: Ccq1_(496–583), Raf2-binding motif of Ccq1, fused to Gal4 activation domain (domain or fragment, UniProt Q10432 496-583)
chain: SQQEADEVELSNNYDLQGAAVQYLQRRLRMVEDELHEAINSKNVQQSRSEELEQQISKLTDNLQEYRNTVRELKLDLEKSKKKNEDLS
binding [1]: binds

B5: full-length Ccq1 L519R fused to Gal4 activation domain (protein, UniProt Q10432 1-735)
chain: T3 sequence with L519R
binding [2]: binds

B6: full-length Ccq1 Y518R fused to Gal4 activation domain (protein, UniProt Q10432 1-735)
chain: T3 sequence with Y518R
binding [2]: binds

Other lines, results leading:

binding [2]: binds
binding [1]: binds
B2: full-length Ccq1 fused to Gal4 activation domain (protein, UniProt Q10432 1-735)
chain: T3 sequence

binding [2]: binds
B3: full-length Ccq1 V516R fused to Gal4 activation domain (protein, UniProt Q10432 1-735)
chain: T3 sequence with V516R

binding [2]: binds
B4: full-length Ccq1 L511R fused to Gal4 activation domain (protein, UniProt Q10432 1-735)
chain: T3 sequence with L511R

binding [3]: binds
B7: Myc-tagged Raf2 (protein, UniProt O74560 1-636)
chain: T1 sequence
